Measurements reported in publication PMC10286485.
Results are given in words; binding and its absence hold for the method and conditions named. In cells and extracts the contact can be indirect. Some entries that bind do so weakly or less than the wild type.

Protein sequences, listed by entry. Tags and fused reporters are not part of them. Residues count along the entry.
UniProt Q61221: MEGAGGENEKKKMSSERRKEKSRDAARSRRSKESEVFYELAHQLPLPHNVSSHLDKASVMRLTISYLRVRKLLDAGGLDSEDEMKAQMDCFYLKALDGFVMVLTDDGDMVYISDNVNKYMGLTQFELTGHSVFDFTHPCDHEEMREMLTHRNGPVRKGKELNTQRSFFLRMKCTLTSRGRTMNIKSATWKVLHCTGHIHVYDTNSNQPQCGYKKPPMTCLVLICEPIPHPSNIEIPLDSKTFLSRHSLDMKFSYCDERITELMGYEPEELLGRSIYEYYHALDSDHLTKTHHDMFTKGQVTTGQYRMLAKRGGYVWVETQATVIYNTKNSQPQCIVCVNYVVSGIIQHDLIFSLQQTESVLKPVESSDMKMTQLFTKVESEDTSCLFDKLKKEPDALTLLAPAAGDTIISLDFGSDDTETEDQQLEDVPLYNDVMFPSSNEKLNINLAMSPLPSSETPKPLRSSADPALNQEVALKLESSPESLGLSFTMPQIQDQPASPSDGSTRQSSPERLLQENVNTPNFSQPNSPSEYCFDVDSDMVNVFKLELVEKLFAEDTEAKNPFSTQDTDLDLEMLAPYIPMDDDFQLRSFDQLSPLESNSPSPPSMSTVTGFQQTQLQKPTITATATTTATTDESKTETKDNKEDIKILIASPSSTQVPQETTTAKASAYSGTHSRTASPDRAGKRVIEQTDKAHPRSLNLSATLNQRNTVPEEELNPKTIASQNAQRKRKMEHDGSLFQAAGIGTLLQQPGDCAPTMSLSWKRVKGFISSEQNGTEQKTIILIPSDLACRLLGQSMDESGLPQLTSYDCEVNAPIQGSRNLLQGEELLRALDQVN
UniProt P20029, residues 20-655: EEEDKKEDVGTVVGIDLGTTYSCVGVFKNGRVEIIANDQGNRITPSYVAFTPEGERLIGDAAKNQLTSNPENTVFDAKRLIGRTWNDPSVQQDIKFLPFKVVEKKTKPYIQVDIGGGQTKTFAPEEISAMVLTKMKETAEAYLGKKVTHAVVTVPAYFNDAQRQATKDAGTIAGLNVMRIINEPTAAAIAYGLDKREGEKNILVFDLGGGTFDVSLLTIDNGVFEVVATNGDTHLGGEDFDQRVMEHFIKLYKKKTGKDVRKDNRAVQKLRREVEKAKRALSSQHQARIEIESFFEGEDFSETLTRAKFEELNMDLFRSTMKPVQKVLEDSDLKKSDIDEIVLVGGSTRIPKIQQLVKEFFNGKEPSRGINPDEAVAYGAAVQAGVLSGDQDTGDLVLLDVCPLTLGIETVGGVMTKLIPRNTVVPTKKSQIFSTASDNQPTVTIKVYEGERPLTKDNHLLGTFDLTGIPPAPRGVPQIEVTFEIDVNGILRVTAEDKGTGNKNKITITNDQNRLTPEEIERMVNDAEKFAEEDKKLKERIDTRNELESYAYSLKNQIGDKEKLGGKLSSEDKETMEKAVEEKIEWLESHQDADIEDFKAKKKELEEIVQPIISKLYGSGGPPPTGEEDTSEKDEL
UniProt Q9EQY0, residues 21-977: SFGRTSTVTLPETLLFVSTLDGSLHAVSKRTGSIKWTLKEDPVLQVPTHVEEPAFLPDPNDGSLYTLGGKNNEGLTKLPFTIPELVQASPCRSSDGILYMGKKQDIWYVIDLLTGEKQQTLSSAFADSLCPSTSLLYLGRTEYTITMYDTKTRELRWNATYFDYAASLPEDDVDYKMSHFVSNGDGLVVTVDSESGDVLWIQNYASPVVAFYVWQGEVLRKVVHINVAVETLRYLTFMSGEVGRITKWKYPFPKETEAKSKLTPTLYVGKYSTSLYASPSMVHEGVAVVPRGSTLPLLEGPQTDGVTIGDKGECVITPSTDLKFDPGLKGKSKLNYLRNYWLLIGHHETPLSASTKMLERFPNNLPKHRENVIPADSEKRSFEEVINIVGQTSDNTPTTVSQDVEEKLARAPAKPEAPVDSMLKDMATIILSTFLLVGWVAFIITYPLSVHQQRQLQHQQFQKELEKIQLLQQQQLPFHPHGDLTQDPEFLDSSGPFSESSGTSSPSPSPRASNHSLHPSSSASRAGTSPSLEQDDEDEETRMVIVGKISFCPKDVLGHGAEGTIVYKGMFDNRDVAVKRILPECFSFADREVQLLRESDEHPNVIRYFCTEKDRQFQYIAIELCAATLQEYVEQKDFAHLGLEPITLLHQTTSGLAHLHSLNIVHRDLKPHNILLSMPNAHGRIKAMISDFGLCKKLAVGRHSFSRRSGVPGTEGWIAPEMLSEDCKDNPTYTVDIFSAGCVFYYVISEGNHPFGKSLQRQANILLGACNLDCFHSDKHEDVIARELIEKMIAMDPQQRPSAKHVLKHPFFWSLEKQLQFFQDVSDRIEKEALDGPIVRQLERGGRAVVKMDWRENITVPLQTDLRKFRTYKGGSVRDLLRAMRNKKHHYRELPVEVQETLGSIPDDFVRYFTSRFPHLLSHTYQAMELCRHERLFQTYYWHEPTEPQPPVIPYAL

Biological target: Hypoxia-Inducible Factor 1α (mouse (endogenous in J774)) (UniProt Q61221)
Assay: co-IP; HIF1α immunoprecipitated (anti-HIF1α, Protein A-Sepharose, 4 °C overnight; lysis buffer 1% NP-40, 0.1% SDS, 0.1% deoxycholic acid, 50 mM Tris pH 7.4) from J774 cells under normoxia (21% O2) or hypoxia (2% O2, 1 h); immunoblot for GRP78, IRE1α, PERK, ATF6; also after 1 h pre-treatment with 4µ8c (100 µM) or KIRA6 (1 µM)

binding	Substance
binds	Glucose-Regulated Protein-78 (from UniProt P20029 20-655)
binds	inositol-requiring enzyme 1α (from UniProt Q9EQY0 21-977)
